# Assay results from publication PMC12040169 (PLOS Biology, 2025).
# The other results are listed elsewhere or left out.
# Test system: T1, CTL2-GFP (C. trachomatis L2/434/Bu, GFP-expressing)
# T1 construct: L2/434/Bu, GFP-expressing
# Set-up: species or system HeLa; Intracellular C. trachomatis growth in HeLa cells, bulk GFP fluorescence relative to DMSO
# Settings: bulk GFP, single well; 28.5 h, 10 µM; inhibitor
row,Compound,% of control remaining [%]
1,CCOC(=O)CN/C(=N/O)c1c(Cl)cccc1Cl [CBK022374],146.469
2,FC(F)(F)c1cccc(OC2CCCNC2)n1 (stereo not drawn) [CBK113290],119.822
3,CC(=O)N1CC[C@@H]2NC(=O)[C@H]3C[C@H](NC(=O)c4ccc(F)c(Cl)c4)CN3C(=O)[C@H]21 [CBK289270],133.706
4,CC(Oc1ccc(Cl)cc1Cl)C(=O)NC(=S)Nc1ccc2c(c1)C(=O)N(C)C2=O (stereo not drawn) [CBK267356],144.217
5,CCOC(=O)CN1CCN(S(=O)(=O)c2ccc(F)c(F)c2F)CC1 [CBK044345],136.834
6,O=C(c1ncoc1-c1ccc(F)cc1)N1CCN2CCCC2C1 (stereo not drawn) [CBK282399],160.709
7,CCCn1c(C(=O)Nc2cccnc2)cc2c(=O)n(C)c(=O)n(C)c21 [CBK287838],122.661
8,CCCc1cc(C(=O)NCCCN)cc(CCC)c1OCc1ccccc1 [CBK001736C],54.0582
9,CC(C)C(=O)Nc1cccc(-c2cn3ccsc3n2)c1 [CBK096253],155.684
10,Cc1cc(C(=O)N2CCC3(CCN(Cc4ccccc4)C3)C2)n[nH]1 (stereo not drawn) [CBK137092T],117.666
11,Nc1n[nH]c(SCC(=O)N2CCN(C(c3ccccc3)c3ccccc3)CC2)n1 [CBK267893],125.98
12,CCSCCN1CCC(Oc2nccnc2OCc2ccc(Br)cc2F)CC1 [CBK161087],120.072
13,Cc1ccc(S(=O)(=O)N(CC(=O)Nc2cccnc2)c2ccc(F)cc2)cc1 [CBK263968],137.239
14,C#CCNC(=O)N(C)C1CCN(c2ncnc3ccccc23)CC1 [CBK306109],96.9074
15,CC1CC(C)CN(C2CCN(Cc3ccccn3)CC2)C1 (stereo not drawn) [CBK264639G],100
16,Cc1ccc(S(=O)(=O)NC[C@H]2O[C@@H](CC(=O)N3CCOCC3)[C@H](O)[C@@H]2O)cc1 [CBK288924],109.508
17,Cc1cccc(C(C)(C)C)c1NC(=O)NCCc1cccs1 [CBK044530],97.6455
18,CN(C)C(CNS(=O)(=O)c1cc2c(cc1Br)NC(=O)CO2)c1ccc(F)cc1 (stereo not drawn) [CBK298296],131.151
19,Nc1ncnc(NNC(=O)CNC(=O)c2ccccc2C(F)(F)F)c1[N+](=O)[O-] [CBK267186],167.296
20,COc1ccc2[nH]cc(CCNC(=O)[C@@H]3Cc4c([nH]c5ccccc45)C4(CCN(Cc5ccc(F)cc5)C4)N3)c2c1 (stereo partly drawn) [CBK066937],117.5
21,Cn1c(N2CC[C@H](O)C2)nc2cc(C(=O)NCCn3cccn3)ccc21 [CBK307328],139.282
22,O=C(O)C1CCN(C(=O)CCN2C(=O)[C@@H]3Cc4ccccc4CN3C2=O)CC1 [CBK286682],151.274
23,CN(C)CC1CN(c2nc(-c3ccncc3)nc3c2CCC3)CCO1 (stereo not drawn) [CBK305824],129.284
24,CCN(CC)CCSc1nc(O)c(Cc2ccccc2)c(=O)[nH]1 [CBK072486],108.475
25,CCCNC(=O)N1CCC(n2cnc3cccnc32)CC1 [CBK282282],105.738
26,CN(Cc1cc(Br)cs1)C(=O)CCc1c[nH]c2ccccc12 [CBK298268],107.275

row,Compound,% of control remaining [%]
1,CCc1ncc(C(=O)N(Cc2ccccn2)CC2CCCO2)cn1 (stereo not drawn) [CBK307077],84.0627
2,COC(=O)c1ccc(N/C(C)=C/C(=O)c2ccc(C)o2)cc1 [CBK267057],60.5735
3,CC(=O)Nc1ccc(S(=O)(=O)Nc2ccnc(N3CCN4CCCC4C3)n2)cc1 (stereo not drawn) [CBK000380C],112.572
4,CC1CCc2c(sc(NC(=O)c3ccn(C)n3)c2C#N)C1 (stereo not drawn) [CBK304682],118.416
5,CCCSc1ncc(Cl)c(C(=O)Nc2ccc(S(=O)(=O)N3CC(C)OC(C)C3)cc2)n1 (stereo not drawn) [CBK269055],118.573
6,O=[N+]([O-])c1ccc(N2CCN(S(=O)(=O)c3ccc4ccccc4c3)CC2)cc1 [CBK157773],122.461
7,O=C(c1c[nH]nc1-c1cc2ccccc2o1)N1CCC(O)(C(F)(F)F)C1 (stereo not drawn) [CBK305549],135.474
8,COc1ccc(-c2ccc3nnc(SCc4cccnc4)n3n2)cc1 [CBK287680],123.45
9,CCOc1ccc(CNc2ccc(C3c4ccsc4CCN3C(=O)COC)cc2)cc1 (stereo not drawn) [CBK286453],105.348
10,C[C@H](Cn1nc2c(cc1=O)CCCCC2)NC(=O)C1CCCC1 [CBK284546],160.515
11,Cc1ccc(Nc2nc(O)ns2)cc1 [CBK026011],74.8685
12,CCCOC1CCCN(c2nccc(-c3cc(C(=O)O)ccn3)n2)C1 (stereo not drawn) [CBK307703],125.046
13,CSCCN1CCC2(CC1)CN(CCO)c1ccccc12 [CBK126771],103.344
14,O=C(NC1CC2(CCOCC2)Oc2ccccc21)c1ccco1 (stereo not drawn) [CBK285378],117.901
15,O=C(O)CCN1C(=O)C(O)=C(C(=O)c2ccc(Cl)cc2)C1c1ccccc1[N+](=O)[O-] (stereo not drawn) [CBK264553],116.466
16,CC[C@H]1CN(C(=O)C2CC2)CC[C@H]1CC(=O)NCc1ccc2c(c1)OCO2 [CBK289133],125.348
17,FC(F)(F)c1ccc2[nH]c(Cn3cncn3)nc2c1 [CBK007335],119.12
18,O=C(O)CCC(=O)Nc1ccc(N2CCN(CCO)CC2)cc1 [CBK078486],103.175
19,COCC(=O)Nc1nc2c(s1)C[C@]1(C)CC[C@@H]3[C@H](OC(=O)[C@H]3C)[C@H]1[C@@H]2C [CBK289430],153.31
20,CCOc1cc(/C=N\NC(=O)CNc2ccccc2C)cc(Br)c1O [CBK262151],114.982
21,O=S(=O)(NCCc1ccncc1)c1ccc(Cl)c(Cl)c1 [CBK044438],62.2976
22,O=C(Nc1cncc(OC2CCNCC2)n1)c1cnc2ccccc2c1 [CBK036377T],107.71
23,CCCN1C(=O)N(CO)C2C1N(CO)C(=O)N2CCC (stereo not drawn) [CBK263882],149.974
24,CC(Oc1cccc(C#N)c1)C(=O)N1CCSCC1 (stereo not drawn) [CBK305748],87.8835
25,S=C(NCCN1CCCCC1)NCc1ccco1 [CBK268171],110.236
26,O=S(=O)(c1ccc(-c2cncc(-c3ccc(O)cc3)n2)cc1F)N1CCOCC1 [CBK126903],130.63

# Nothing new here: three of the compounds above.
row,Compound,% of control remaining [%]
21,O=S(=O)(NCCc1ccncc1)c1ccc(Cl)c(Cl)c1 [CBK044438],62.2976
22,O=C(Nc1cncc(OC2CCNCC2)n1)c1cnc2ccccc2c1 [CBK036377T],107.71
23,CCCN1C(=O)N(CO)C2C1N(CO)C(=O)N2CCC (stereo not drawn) [CBK263882],149.974

# (next part)

row,Compound,% of control remaining [%]
1,COc1ccccc1-c1nnc(SCC(=O)N2CCN(c3ccccc3)CC2)[nH]1 [CBK270105],123.707
2,CC(C)CCc1c(O)nc(SCCN(C)C)[nH]c1=O [CBK263382],100
3,CC(C)C1OC(NCc2ccccc2Cl)=NC1=O (stereo not drawn) [CBK070344],107.975
4,O=[N+]([O-])c1cccc(-c2noc([C@@H]3C[C@@H](O)CN3C3CCOCC3)n2)c1 [CBK288847],135.866
5,CN(C)CCN(C)Cc1ccc([N+](=O)[O-])cc1 [CBK261728],97.7224
6,CC(C)Nc1cncc(OC2CCN(C)C2)n1 (stereo not drawn) [CBK115598],112.566
7,COc1ccccc1CC(=O)N(Cc1nc(-c2cccc(C)c2)no1)C(C)C [CBK269345],99.314
8,Cc1ccc(SCCN2CCNCC2)cc1 [CBK266045G],168.345
9,COC(=O)[C@H]1CN(C(=O)c2cn(C)nc2C)C[C@@H]1c1ccc(F)cc1 [CBK283720],104.636
10,COc1ccc(-c2c(C)nn(-c3ccc(Cl)nn3)c2C)c(C(=O)O)c1 [CBK005774],111.702
11,Nc1ccc(C(=O)Nc2ccc(Nc3cc(-c4cc(C(F)(F)F)cc(C(F)(F)F)c4)ncn3)cc2)cc1 [CBK091091],189.527
12,O=C(O)CCc1ccc(-c2cccs2)n1CCOc1ccccc1Cl [CBK267885],108.915
13,CCNC(=O)Nc1ncc(-c2ccc3c(c2)OCCCO3)c2cccnc12 [CBK070634],100
14,CCn1nnnc1NCc1ccc(OCc2ccc(F)cc2Cl)c(OC)c1 [CBK268224],100.799
15,COc1ccc(N)cc1OCCn1ccnc(N2CCNCC2)c1=O [CBK024211C],131.667
16,COc1ccc(N2CCN(c3cncc(-c4cccs4)n3)CC2)cc1OC [CBK065687],90.1717
17,O=C(c1cnc2[nH][nH]c(=O)c2c1)c1ccccc1O [CBK288082],122.668
18,NS(=O)(=O)c1ccc(NC(=S)Nc2nn(Cc3ccc(Cl)cc3Cl)cc2Cl)cc1 [CBK267020],131.357
19,Cc1cc(O)ccc1Nc1cc(-c2ccccc2N(C)C)ncn1 [CBK091051],68.7482
20,CC(=O)c1c(C)oc2ccc(N(C(C)=O)S(=O)(=O)c3ccc(C(=O)O)cc3)cc12 [CBK299790],140.011
21,Cc1ccc(CN(Cc2cncn2C)CC2CCCO2)o1 (stereo not drawn) [CBK283272],111.661
22,Cc1cc(NC(=O)CNC(=O)c2ccccc2)no1 [CBK073427],85.7472
23,COc1cc(Nc2cncc(-c3ccc4ccccc4c3)n2)cc(OC)c1OC [CBK065176],72.9402
24,CCC(CN1CCCC1)n1cncc1-c1cn(C)nc1C (stereo not drawn) [CBK281459],106.086
25,CCCn1nc(C)c(-c2cncn2CCN(C)C2CCCC2)c1C [CBK281790],126.977
26,O=C(O)c1[nH]c2ccccc2c1C(c1ccc(OC2CCCC2)cc1)c1c(C(=O)O)[nH]c2ccccc12 [CBK267789],126.667
